Experimental data from patent US20060281125.

Chains of the proteins cited; added tags and fusions are not shown. Residues count along the entry.
UniProt Q96T88, 263-793 K383N/A457S: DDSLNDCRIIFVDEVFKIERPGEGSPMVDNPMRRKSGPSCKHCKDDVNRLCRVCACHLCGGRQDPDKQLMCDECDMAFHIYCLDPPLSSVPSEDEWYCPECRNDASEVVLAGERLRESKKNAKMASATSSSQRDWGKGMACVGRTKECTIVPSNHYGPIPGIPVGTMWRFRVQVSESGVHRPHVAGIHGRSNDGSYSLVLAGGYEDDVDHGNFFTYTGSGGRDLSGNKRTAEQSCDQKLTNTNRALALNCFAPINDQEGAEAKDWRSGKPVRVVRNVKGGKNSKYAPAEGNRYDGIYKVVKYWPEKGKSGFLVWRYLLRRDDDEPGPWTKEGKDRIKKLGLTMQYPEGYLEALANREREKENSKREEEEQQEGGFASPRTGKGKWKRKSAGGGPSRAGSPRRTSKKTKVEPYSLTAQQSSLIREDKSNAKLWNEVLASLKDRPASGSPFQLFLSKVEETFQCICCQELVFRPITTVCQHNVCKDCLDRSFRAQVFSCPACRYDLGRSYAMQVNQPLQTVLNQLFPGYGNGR
UniProt Q96T88, whole entry K383N/A457S: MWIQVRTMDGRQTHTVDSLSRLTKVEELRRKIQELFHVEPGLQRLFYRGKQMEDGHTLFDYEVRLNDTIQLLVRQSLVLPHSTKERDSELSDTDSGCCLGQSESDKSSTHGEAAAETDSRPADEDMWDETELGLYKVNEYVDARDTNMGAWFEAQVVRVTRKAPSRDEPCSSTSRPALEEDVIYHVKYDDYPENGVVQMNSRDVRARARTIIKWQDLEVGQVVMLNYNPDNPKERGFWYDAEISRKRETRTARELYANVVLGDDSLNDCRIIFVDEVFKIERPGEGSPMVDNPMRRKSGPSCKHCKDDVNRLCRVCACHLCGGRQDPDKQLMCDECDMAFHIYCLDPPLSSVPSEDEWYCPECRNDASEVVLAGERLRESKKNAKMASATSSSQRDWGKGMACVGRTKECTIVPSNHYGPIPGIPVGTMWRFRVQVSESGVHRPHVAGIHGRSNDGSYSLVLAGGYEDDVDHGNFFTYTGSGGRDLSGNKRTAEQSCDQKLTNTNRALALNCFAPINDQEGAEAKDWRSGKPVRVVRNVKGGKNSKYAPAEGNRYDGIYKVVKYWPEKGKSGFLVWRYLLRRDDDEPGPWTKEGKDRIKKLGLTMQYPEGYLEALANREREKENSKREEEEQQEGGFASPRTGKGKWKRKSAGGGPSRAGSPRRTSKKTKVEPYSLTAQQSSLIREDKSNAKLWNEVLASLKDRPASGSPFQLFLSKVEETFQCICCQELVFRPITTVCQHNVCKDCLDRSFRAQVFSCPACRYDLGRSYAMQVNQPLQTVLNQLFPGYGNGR

How the values were obtained:
[1] = target: ICBP-59 GAL4-AD fusion (Homo sapiens) (UniProt Q96T88); assay: one hybrid; details: yeast YM4271, pHISi-1 his3 reporter; protein in cells; protein details: GAL4-AD (pGAD10); label: 32P
[2] = target: ICBP90 (Homo sapiens) (UniProt Q96T88); assay: EMSA; details: same buffer as ICBP-59; behaviour stated identical to ICBP-59; purified recombinant protein; protein details: GST fusion system (pGEX-4T-1), E. coli BL21; label: 32P

Sequence	binding result [1]	binding result [2]
AATTCGATTGGTTCTGATTGGTTCTGATTGGTTCTT / CTAGAAGAACCAATCAGAACCAATCAGAACCAATCG [ICB2X3]	binds	–
ATAAAGGCAAGCTACGATTGGTTCTTCTGGACGGAGAC / GTCTCCGTCCAGAAGAACCAATCGTAGCTTGCCTTTTAT [ICB2 single copy]	–	binds

For some assays here: Results from cells or extracts need not show a direct contact. For some assays here: For at least one entry, the source does not settle the construct or the ends of the probe.
